Reference: the supplement of paper PMC7125110
± gives the standard error. The uncertainty is large for many entries.

B1: glmS ribozyme (parent)
chain: AUAAAAGCGCCAGAACUACAGAAAUGUAGUUGACGAGGAGGAGGUUUAUCGAAUUUUCGGCGGAUGCCUCCAAA

Variants of: B1
Assay: self-cleavage kobs at 640 uM GlcN6P; higher = faster cleavage; RNA array
Details: with glucosamine-6-phosphate
Outline: (§1)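 The measurements used barcoded ribozyme variants on sequenced MiSeq chips, transcribed in situ by E. coli RNA polymerase and tracked at 37 °C with a hybridised Cy3 probe. Glucosamine-6-phosphate, 40 μM to 10 mM in HEPES/KCl/Mg(OAc)2 buffer, was flowed in while tiles were imaged over ~14 h. Baseline-normalised signals, also normalised to non-cleaving reference variants, gave per-tile medians that were fit to one- or two-exponential decays for kobs. kcat and KM resulted from weighted Michaelis–Menten fits across concentrations.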

Variant | self-cleavage kobs at 640 uM GlcN6P
AUAAAAGCGCCAGAAGUACAGAAAUGUAGUUGACGAGGAGGAGGUUUAUUGAAUUUUCGGCGGAUGCUUCAAAA [C16G C50U C68U C71A] | 3.77e-05 ± 2.5e-05 s⁻¹
AUAAAAGCGCCAGAAGUACAGAAAUGUAGUUGACGAGGAGGAGGUUUAUCGAAUUUUCGGCGGAUGCCUACAAA [C16G C70A] | 2.24e-05 ± 2.1e-05 s⁻¹
AUAAAAGCGCCAGAAGUACAGAAAUGUAGUUGACGAGGAGGAGGUUUAUCGAAUUUUCGGCGGAUGCCUAUAAA [C16G C70A C71U] | 4.48e-05 ± 3.2e-05 s⁻¹
AUAAAAGCGCCAGAAGUACAGAAAUGUAAUUGACGAGGAGGAGGUUUAUCGAAUUUACGGCGGAUGGCUCCAAA [C16G G29A U57A C67G] | 0.000318 ± 0.00016 s⁻¹
AUAAAAGCGCCAGAAGUACAGAAAUGUAGUUGACGAGGAGGAGGUUUAUCAAAUUUUCGGCGGAUGCCGCCAAA [C16G G51A U69G] | 6.62e-05 ± 3.4e-05 s⁻¹
AUAAAAGCGCCAGAAGUACAGAAAUGUAGUUGACGAGGAGGAGGUUUAUCGAAUUUUCGGCGGAUACCGCCAAA [C16G G66A U69G] | 3.5e-05 ± 2.7e-05 s⁻¹
AUAAAAGCGCCAGAAGUACAGAAAUGUAGUAGACGAGGUGGAGGGUUAUCGAAUUUUCGGCGGAUGCCUCCAAA [C16G U31A A39U U45G] | 4.95e-05 ± 3.3e-05 s⁻¹
AUAAAAGCGCCAGAAUUACAGAAAUGUAGUUGACGAGGAGGUGGUUUAUCGAAGUUUCGGCGGAUGCCUCCAAA [C16U A42U U54G] | 2.83e-05 ± 1.8e-05 s⁻¹
AUAAAAGCGCCAGAAUUACAGAAAUGUAGUUGACGAGGAGGAGGUUUAUGGAAUUUUCGUCGGAUGCCUCCAAA [C16U C50G G60U] | 2.96e-05 ± 2.9e-05 s⁻¹
AUAAAAGCGCCAGAAUUACAGAAAUGUAGUUGACGAGGAGGAGGUUUAUGGAAUCUUCGGCGGAUGCCUCCAAA [C16U C50G U55C] | 0.000706 ± 0.00042 s⁻¹
AUAAAAGCGCCAGAAUUACAGAAAUGUAGUUGACGAGGAGGAGGUUUAUCGAAUUUUUGGCGGAUGCCUCCAAA [C16U C58U] | 3.24e-05 ± 1.9e-05 s⁻¹
AUAAAAGCGCCAGAAUUACAGAAAUGUAGUUGACGAGGAGGAGGUUUAUCGAAUUUUUGGCGGAUGCCGCCAAA [C16U C58U U69G] | 4.27e-05 ± 2.7e-05 s⁻¹
AUAAAAGCGCCAGAAUUACAGAAAUGUAGUUGACGAGGAGGAGGUUUAUCGAAUUUUCAGCGGAUGCCUCCAAA [C16U G59A] | 1.72e-05 ± 1.3e-05 s⁻¹
AUAAAAGCGCCAGAACUAAAGAAAUGUAGCUGACGAGGAGGAGGUUUAUCGAAUUUUCGGCGGAUGCCUCCAAA [C19A U30C] | 6.65e-05 ± 3.5e-05 s⁻¹
AUAAAAGCGCCAGAACUACAGAAAUUUAGUUGACGAGGAGGAGGUUUGUCGAAUUUUCGGCGGAUGCCUCCAAA [G26U A48G] | 2.84e-05 ± 2.7e-05 s⁻¹
AUAAAAGCGCCAGAACUACAGAAAUGGAGUUGACGAGGAGGAGGUUUAUCGAAUUUUCGGGGGAUGUCUCCAAA [U27G C61G C67U] | 5.06e-05 ± 3.7e-05 s⁻¹
AUAAAAGCGCCAGAACUACAGAAAUGUAAUUGACGAGUAGGAGGUUUAUCGAAUUUUCGGCGGAUGCCUCGAAA [G29A G38U C71G] | 3.26e-05 ± 3.1e-05 s⁻¹
AUAAAAGCGCCAGAACUACAGAAAUGUACUUGACGUGGAGGAGGUUUAUGGAAUUUUCGGCGGAUGCCUCCAAA [G29C A36U C50G] | 5.79e-05 ± 4.1e-05 s⁻¹
AUAAAAGCGCCAGAACUACAGAAAUGUACUUGACGAGGAGGAGGUUUAUCGAAUUUUCGGCGGAUGAGUCCAAA [G29C C67A C68G] | 6.64e-05 ± 3.6e-05 s⁻¹
AUAAAAGCGCCAGAACUACAGAAAUGUACUUUACGAGGAGGAGGUUUAUCGAAUUCUCGGCGGAUGCCUCCAAA [G29C G32U U56C] | 3.28e-05 ± 3.2e-05 s⁻¹
AUAAAAGCGCCAGAACUACAGAAAUGUACUUGACGAGGAGGAGGUUUAUCGAAUUUUCUGCGGAUGCUUCCAAA [G29C G59U C68U] | 3.43e-05 ± 2.6e-05 s⁻¹
AUAAAAGCGCCAGAACUACAGAAAUGUAUUUGACGAGGAGGAGGUUUAUCGAAUUUUCGGCGGCUGCCUGCAAA [G29U A64C C70G] | 4e-05 ± 3.3e-05 s⁻¹
AUAAAAGCGCCAGAACUACAGAAAUGUAUUUGACGAGGAGGAGGUUUAUCGAAUUUUCGGCGGAUGAAUCCAAA [G29U C67A C68A] | 3e-05 ± 1.8e-05 s⁻¹
AUAAAAGCGCCAGAACUACAGAAAUGUAUUAGACGAGGAGGAGGUUUAUCGAAUUUUCGGCGGAUGCCGACAAA [G29U U31A U69G C70A] | 9.23e-05 ± 5.6e-05 s⁻¹
AUAAAAGCGCCAGAACUACAGAAAUGUAUUUGACGAGGAGGAGGUUUAUCGAAUUGUCGGCGGGUGCCUGCAAA [G29U U56G A64G C70G] | 3.93e-05 ± 2.4e-05 s⁻¹
AUAAAAGCGCCAGAACUACAGAAAUGUAUUUGACGAGGAGGAGGUUUAUCGAAUUUCCGGCGGAUGCCUCCAAA [G29U U57C] | 1.99e-05 ± 1.4e-05 s⁻¹
AUAAAAGCGCCAGAACUACAGAAAUGUAGAUGACGAGGAGGAGGUUUAUCGAAAUUUCGGCGGAUGUAUCCAAA [U30A U54A C67U C68A] | 2.37e-05 ± 2e-05 s⁻¹
AUAAAAGCGCCAGAACUACAGAAAUGUAGCUGACGAGGAGGAGGUUUAUCGGAUUUUCGGCGGAUGCCUCCAAA [U30C A52G] | 1.99e-05 ± 2e-05 s⁻¹
AUAAAAGCGCCAGAACUACAGAAAUGUAGCUGACGAUGGGGAGGUUUAUCGAAUUUUCGGCGGAUGCGUCCAAA [U30C G37U A39G C68G] | 5.17e-05 ± 2.6e-05 s⁻¹

Variants of: B1
Assay: self-cleavage kobs at 2500 uM GlcN6P; higher = faster cleavage; RNA array
Details: with glucosamine-6-phosphate
Outline: as §1

Variant | self-cleavage kobs at 2500 uM GlcN6P
AUAAAAGCGCCAGAAGUACAGAAAUGUAGUUGACGAGGAGGAGGUUUAUUGAAUUUUCGGCGGAUGCUUCAAAA [C16G C50U C68U C71A] | 3.45e-05 ± 3.1e-05 s⁻¹
AUAAAAGCGCCAGAAGUACAGAAAUGUAGUUGACGAGGAGGAGGUUUAUCGAAUUUUCGGCGGAUGCCUAUAAA [C16G C70A C71U] | 2.73e-05 ± 2.4e-05 s⁻¹
AUAAAAGCGCCAGAAGUACAGAAAUGUAAUUGACGAGGAGGAGGUUUAUCGAAUUUACGGCGGAUGGCUCCAAA [C16G G29A U57A C67G] | 3.68e-05 ± 1.9e-05 s⁻¹
AUAAAAGCGCCAGAAGUACAGAAAUGUAGUUGACGAGGAGGAGGUUUAUCAAAUUUUCGGCGGAUGCCGCCAAA [C16G G51A U69G] | 3.04e-05 ± 2.9e-05 s⁻¹
AUAAAAGCGCCAGAACUACAGAAAUGGAGUUGACGAGGAGGAGGUUUAUCGAAUUUUCGGGGGAUGUCUCCAAA [U27G C61G C67U] | 4.45e-05 ± 3.4e-05 s⁻¹
AUAAAAGCGCCAGAACUACAGAAAUGUACUUGACGAGGAGGAGGUUUAUCGAAUUUUCUGCGGAUGCUUCCAAA [G29C G59U C68U] | 4.8e-05 ± 3.2e-05 s⁻¹

Taken from the entries so far for reference:
Variant | self-cleavage kobs at 2500 uM GlcN6P
AUAAAAGCGCCAGAAGUACAGAAAUGUAGUUGACGAGGAGGAGGUUUAUUGAAUUUUCGGCGGAUGCUUCAAAA [C16G C50U C68U C71A] | 3.45e-05 ± 3.1e-05 s⁻¹
AUAAAAGCGCCAGAAGUACAGAAAUGUAGUUGACGAGGAGGAGGUUUAUCGAAUUUUCGGCGGAUGCCUAUAAA [C16G C70A C71U] | 2.73e-05 ± 2.4e-05 s⁻¹
AUAAAAGCGCCAGAAGUACAGAAAUGUAAUUGACGAGGAGGAGGUUUAUCGAAUUUACGGCGGAUGGCUCCAAA [C16G G29A U57A C67G] | 3.68e-05 ± 1.9e-05 s⁻¹

Variants of: B1
Assay: self-cleavage kobs at 10000 uM GlcN6P; higher = faster cleavage; RNA array
Details: with glucosamine-6-phosphate
Outline: as §1

Variant | self-cleavage kobs at 10000 uM GlcN6P
AUAAAAGCGCCAGAACUACAGAAAUGUACUUGACGUGGAGGAGGUUUAUGGAAUUUUCGGCGGAUGCCUCCAAA [G29C A36U C50G] | 3.41e-05 ± 2.3e-05 s⁻¹
AUAAAAGCGCCAGAACUACAGAAAUGUAGCUGACGAGGAGGAGGUUUAUCGGAUUUUCGGCGGAUGCCUCCAAA [U30C A52G] | 1.59e-05 ± 1.4e-05 s⁻¹
